# Measurements reported in paper PMC7677509.
# Amino acid sequences for entries named in this document (tags omitted). A change or cut given only in a name is not applied to a line headed by its entry.
# UniProt P05556: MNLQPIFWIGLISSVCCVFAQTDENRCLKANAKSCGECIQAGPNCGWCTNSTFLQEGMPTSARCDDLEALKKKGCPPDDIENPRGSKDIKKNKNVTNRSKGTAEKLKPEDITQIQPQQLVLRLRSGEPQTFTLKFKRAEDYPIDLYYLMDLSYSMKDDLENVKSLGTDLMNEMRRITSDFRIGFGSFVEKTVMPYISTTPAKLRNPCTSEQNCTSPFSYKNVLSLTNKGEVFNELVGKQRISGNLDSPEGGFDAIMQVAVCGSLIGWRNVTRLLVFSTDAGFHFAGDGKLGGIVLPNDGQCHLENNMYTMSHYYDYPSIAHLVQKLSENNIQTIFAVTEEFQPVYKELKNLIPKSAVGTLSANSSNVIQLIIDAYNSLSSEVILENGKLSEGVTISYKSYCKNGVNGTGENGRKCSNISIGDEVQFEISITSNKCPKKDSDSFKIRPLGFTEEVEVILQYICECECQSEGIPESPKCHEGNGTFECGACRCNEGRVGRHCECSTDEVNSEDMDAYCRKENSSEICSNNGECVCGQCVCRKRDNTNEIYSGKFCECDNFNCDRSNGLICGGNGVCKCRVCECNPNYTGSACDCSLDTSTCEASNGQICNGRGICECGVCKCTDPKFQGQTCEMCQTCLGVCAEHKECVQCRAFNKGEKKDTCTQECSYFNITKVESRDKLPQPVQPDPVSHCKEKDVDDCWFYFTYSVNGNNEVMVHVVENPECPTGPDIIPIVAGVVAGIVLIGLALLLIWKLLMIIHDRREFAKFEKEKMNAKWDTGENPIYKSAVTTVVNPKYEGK
# No constants are given. Whether binding was seen depends on the method and setting. Binding seen in cells or lysates may run through a third protein. Some binding calls cover weakened binding; strength is not graded here. Tags and fused reporters may be left off the sequences shown.
# B1: FLAG-tagged cyclin G2 (protein, UniProt Q16589 1-344)
# chain: MKDLGAEHLAGHEGVQLLGLLNVYLEQEERFQPREKGLSLIEATPENDNTLCPGLRNAKVEDLRSLANFFGSCTETFVLAVNILDRFLALMKVKPKHLSCIGVCSFLLAARIVEEDCNIPSTHDVIRISQCKCTASDIKRMEKIISEKLHYELEATTALNFLHLYHTIILCHTSERKEILSLDKLEAQLKACNCRLIFSKAKPSVLALCLLNLEVETLKSVELLEILLLVKKHSKINDTEFFYWRELVSKCLAEYSSPECCKPDLKKLVWIVSRRTAQNLHNSYYSVPELPTIPEGGCFDESESEDSCEDMSCGEESLSSSPPSDQECTFFFNFKVAQTLCFPS
# Molecular target: insulin-like growth factor binding protein 3 (human (endogenous in SCC-9)) (UniProt P17936)
# Assay: co-IP; SCC-9 cell lysates (RIPA buffer; cyclin G2 overexpressing and control cells); IGFBP3 antibody on protein A/G magnetic beads, incubated overnight, washed with PBST; western blot
molecule,measurement,value
Integrin β1 (from UniProt P05556 21-798) (receptor),binding,binds
B1,binding,binds
